In US8476434B2, “Protein kinase modulators and method of use” (Amgen Inc., priority 2004, dated 2013):
pIC50: −log10 of the molar value. Some results were stated once for a whole list of compounds, not compound by compound.

The chains behind the UniProt entries cited, without tags or fusion partners. Residues count along the entry.
UniProt Q96GD4, whole entry: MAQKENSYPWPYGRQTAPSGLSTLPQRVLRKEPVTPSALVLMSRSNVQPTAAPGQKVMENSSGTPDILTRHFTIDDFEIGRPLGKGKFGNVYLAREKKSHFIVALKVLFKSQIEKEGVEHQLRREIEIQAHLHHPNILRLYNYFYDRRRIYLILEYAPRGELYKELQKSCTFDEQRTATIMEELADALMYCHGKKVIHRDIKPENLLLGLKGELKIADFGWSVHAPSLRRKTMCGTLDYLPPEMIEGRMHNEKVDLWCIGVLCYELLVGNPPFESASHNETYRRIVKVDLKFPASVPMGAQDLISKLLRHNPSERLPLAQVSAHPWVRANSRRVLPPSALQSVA
UniProt Q02763, 23-1124: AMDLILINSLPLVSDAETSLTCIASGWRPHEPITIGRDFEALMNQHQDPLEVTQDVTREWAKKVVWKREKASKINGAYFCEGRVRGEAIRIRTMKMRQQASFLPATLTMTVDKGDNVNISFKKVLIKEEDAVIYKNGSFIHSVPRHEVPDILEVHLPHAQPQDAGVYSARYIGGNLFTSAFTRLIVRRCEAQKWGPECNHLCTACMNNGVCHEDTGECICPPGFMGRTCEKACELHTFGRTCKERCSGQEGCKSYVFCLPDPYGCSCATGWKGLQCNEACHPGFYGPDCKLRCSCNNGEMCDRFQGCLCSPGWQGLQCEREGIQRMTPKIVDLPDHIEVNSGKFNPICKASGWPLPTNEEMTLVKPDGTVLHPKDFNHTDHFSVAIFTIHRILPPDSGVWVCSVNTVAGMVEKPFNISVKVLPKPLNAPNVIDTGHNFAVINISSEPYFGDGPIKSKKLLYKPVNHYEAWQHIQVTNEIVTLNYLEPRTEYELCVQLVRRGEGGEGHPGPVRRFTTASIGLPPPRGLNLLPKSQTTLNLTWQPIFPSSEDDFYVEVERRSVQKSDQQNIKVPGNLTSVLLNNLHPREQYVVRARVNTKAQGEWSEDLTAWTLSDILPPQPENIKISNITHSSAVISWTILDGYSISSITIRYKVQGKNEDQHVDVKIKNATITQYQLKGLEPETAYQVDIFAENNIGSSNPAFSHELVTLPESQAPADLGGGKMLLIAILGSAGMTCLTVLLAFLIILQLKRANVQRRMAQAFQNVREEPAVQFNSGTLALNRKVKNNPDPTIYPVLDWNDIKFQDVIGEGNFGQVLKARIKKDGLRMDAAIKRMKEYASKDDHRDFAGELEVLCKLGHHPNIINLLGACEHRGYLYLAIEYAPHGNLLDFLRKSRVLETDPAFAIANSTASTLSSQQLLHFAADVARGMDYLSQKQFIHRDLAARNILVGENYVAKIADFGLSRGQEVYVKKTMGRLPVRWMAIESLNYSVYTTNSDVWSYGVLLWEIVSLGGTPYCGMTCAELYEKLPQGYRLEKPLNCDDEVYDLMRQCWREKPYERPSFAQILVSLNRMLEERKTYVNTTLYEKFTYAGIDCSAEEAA

Key:
Type in all cases: biochemical
[1] = target: T1, AuroraB FL His (Homo sapiens, UniProt Q96GD4); assay: AuroraB Homogeneous Time Resolved Fluorescent (HTRF) kinase assay; settings: read-out: activity in the Aurora kinase B HTRF assay
T1 construct: AuroraB FL His; His

[2] = target: Tie-2 kinase enzyme (Homo sapiens, UniProt Q02763); assay: Tie-2 Homogenous Time Resolved Fluorescent (HTRF) kinase assay; settings: read-out: IC50's for the inhibition of Tie-2 as measured by the HTRF assay
[3] = target: T2, AuroraA-TPX2 KD GST (Homo sapiens, UniProt O14965); assay: AuroraA-TPX2 Homogeneous Time Resolved Fluorescent (HTRF) kinase assay; settings: read-out: activity in the Aurora kinase A HTRF assay
T2 construct: AuroraA-TPX2 KD GST; GST
T2 sequence (O14965 133-383 limits assumed): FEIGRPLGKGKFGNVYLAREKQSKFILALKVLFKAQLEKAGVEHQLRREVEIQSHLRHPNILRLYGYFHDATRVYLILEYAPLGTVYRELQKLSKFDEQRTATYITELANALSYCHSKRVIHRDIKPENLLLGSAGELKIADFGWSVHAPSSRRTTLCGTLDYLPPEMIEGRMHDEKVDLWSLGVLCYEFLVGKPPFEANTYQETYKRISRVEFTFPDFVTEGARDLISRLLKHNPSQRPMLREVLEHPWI
T2 sequence (Q9ULW0 1-43 partner limits assumed): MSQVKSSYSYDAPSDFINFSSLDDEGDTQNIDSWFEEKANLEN

Row | SMILES | pIC50 [1] | pIC50 [2] | pIC50 [3]
1 | CNc1nccc(-c2cccnc2Oc2cccc(C(=O)Nc3cccc(C(C)C)c3)c2)n1 [Example 493, 3-((3-(2-(methylamino)-4-pyrimidinyl)-2-pyridinyl)oxy)-N-(3-(1-methylethyl)phenyl) benzamide] | > 5.00 | > 5.30 | > 5.00
2 | CNc1nccc(-c2cccnc2Oc2ccc(CC(=O)Nc3ccc(Cl)cc3)cc2)n1 [Example 552, N-(4-chlorophenyl)-2-(4-((3-(2-(methylamino)-4-pyrimidinyl)-2-pyridinyl)oxy)phenyl) acetamide] | > 5.00 | > 5.30 | > 5.00
3 | CC(C)(C)c1cc(NC(=O)c2cccc(Oc3ncccc3-c3ccncn3)c2)no1 [Example 556, N-(5-(1,1-dimethylethyl)-3-isoxazolyl)-3-((3-(4-pyrimidinyl)-2-pyridinyl)oxy)benzamide] | > 5.00 | > 5.30 | > 5.00
4 | O=C(Nc1ccc2c(c1)CCC2)c1cccc(Oc2ncccc2-c2ccncn2)c1 [Example 559, N-(2,3-dihydro-1H-inden-5-yl)-3-((3-(4-pyrimidinyl)-2-pyridinyl)oxy)benzamide] | > 5.00 | > 5.30 | > 5.00
5 | O=C(Nc1cccc(C(F)(F)F)c1)c1cccc(Oc2ncccc2-c2ccncn2)c1 [Example 563, 3-((3-(4-pyrimidinyl)-2-pyridinyl)oxy)-N-(3-(trifluoromethyl)phenyl) benzamide] | > 5.00 | > 5.30 | > 5.00
6 | Cc1ccc(C(=O)Nc2ccc(C(C)(C)C)cc2)cc1Oc1ncccc1-c1ccncn1 [Example 564, N-(4-(1,1-dimethylethyl)phenyl)-4-methyl-3-((3-(4-pyrimidinyl)-2-pyridinyl)oxy)benzamide] | > 5.00 | > 5.30 | > 5.00
7 | Cc1ccc(C(=O)Nc2ccc3c(c2)CCC3)cc1Oc1ncccc1-c1ccncn1 [Example 567, N-(2,3-dihydro-1H-inden-5-yl)-4-methyl-3-((3-(4-pyrimidinyl)-2-pyridinyl)oxy)benzamide] | > 5.00 | > 5.30 | > 5.00
8 | O=C(Nc1ccc(Cl)c(C(F)(F)F)c1)c1cccc(Oc2ncccc2-c2ccncn2)c1 [Example 573, N-(4-chloro-3-(trifluoromethyl)phenyl)-3-((3-(4-pyrimidinyl)-2-pyridinyl)oxy)benzamide] | > 5.00 | > 5.30 | > 5.00
9 | Nc1cc(NC(=O)c2cccc(Oc3ncccc3-c3ccncn3)c2)cc(C(F)(F)F)c1 [Example 574, N-(3-amino-5-(trifluoromethyl)phenyl)-3-((3-(4-pyrimidinyl)-2-pyridinyl)oxy)benzamide] | > 5.00 | > 5.30 | > 5.00
10 | Cc1ccc(C(=O)Nc2cccc(C(C)C)c2)cc1Oc1ncccc1-c1ccncn1 [Example 606, 4-methyl-N-(3-(1-methylethyl)phenyl)-3-((3-(4-pyrimidinyl)-2-pyridinyl)oxy)benzamide] | > 5.00 | > 5.30 | > 5.00
11 | CNc1nccc(-c2cccnc2Oc2cc(C(=O)Nc3cccc(C(C)C)c3)ccc2C)n1 [Example 659, 4-methyl-3-((3-(2-(methylamino)-4-pyrimidinyl)-2-pyridinyl)oxy)-N-(3-(1-methylethyl)phenyl) benzamide] | > 5.00 | > 5.30 | > 5.00
12 | O=C(Nc1ccccc1)Nc1ccc(Oc2ncccc2-c2ccncn2)c2ccccc12 [Example 670, N-phenyl-N′-(4-((3-(4-pyrimidinyl)-2-pyridinyl)oxy)-1-naphthalenyl)urea] | > 5.00 | > 5.30 | > 5.00
13 | O=S(=O)(Nc1ccc(Oc2ncccc2-c2ccncn2)c2ccccc12)c1cccc(Cl)c1Cl [Example 678, 2,3-dichloro-N-(4-((3-(4-pyrimidinyl)-2-pyridinyl)oxy)-1-naphthalenyl)benzene-sulfonamide] | > 5.00 | > 5.30 | > 5.00
14 | CNc1nccc(-c2cccnc2Oc2ccc(NC(=O)Nc3cccc(C(F)(F)F)c3)c(C)c2C)n1 [Example 706, N-(2,3-dimethyl-4-((3-(2-(methylamino)-4-pyrimidinyl)-2-pyridinyl)oxy)phenyl)-N′-(3-(trifluoromethyl)phenyl)urea] | > 5.00 | > 5.30 | > 5.00
15 | CNc1nccc(-c2cccnc2Oc2ccc(NC(=O)Nc3cccc(Cl)c3)cc2C)n1 [Example 780, N-(3-chlorophenyl)-N′-(3-methyl-4-((3-(2-(methylamino)-4-pyrimidinyl)-2-pyridinyl)oxy)phenyl)urea] | > 5.00 | > 5.30 | > 5.00
16 | CNc1nccc(-c2cccnc2Oc2ccc(NC(=O)Nc3ccccc3Cl)cc2C)n1 [Example 781, N-(2-chlorophenyl)-N′-(3-methyl-4-((3-(2-(methylamino)-4-pyrimidinyl)-2-pyridinyl)oxy)phenyl)urea] | > 5.00 | > 5.30 | > 5.00
17 | CNc1nccc(-c2cccnc2Oc2ccc(NC(=O)Nc3ccc(Cl)cc3)cc2C)n1 [Example 782, N-(4-chlorophenyl)-N′-(3-methyl-4-((3-(2-(methylamino)-4-pyrimidinyl)-2-pyridinyl)oxy)phenyl)urea] | > 5.00 | > 5.30 | > 5.00
18 | CNc1nccc(-c2cccnc2Oc2ccc(NC(=O)Nc3cccc(F)c3)cc2C)n1 [Example 790, N-(3-fluorophenyl)-N′-(3-methyl-4-((3-(2-(methylamino)-4-pyrimidinyl)-2-pyridinyl)oxy)phenyl)urea] | > 5.00 | > 5.30 | > 5.00
19 | CNc1nccc(-c2cccnc2Oc2ccc(NC(=O)Nc3cc(C(F)(F)F)ccc3Cl)cc2C)n1 [Example 792, N-(2-chloro-5-(trifluoromethyl)phenyl)-N′-(3-methyl-4-((3-(2-(methylamino)-4-pyrimidinyl)-2-pyridinyl)oxy)phenyl)urea] | > 5.00 | > 5.30 | > 5.00
20 | CNc1nccc(-c2cccnc2Oc2ccc(NC(=O)Nc3cc(Cl)ccc3OC)cc2C)n1 [Example 793, N-(5-chloro-2-(methyloxy)phenyl)-N′-(3-methyl-4-((3-(2-(methylamino)-4-pyrimidinyl)-2-pyridinyl)oxy)phenyl)urea] | > 5.00 | > 5.30 | > 5.00
21 | CNc1ncnc(-c2cccnc2Oc2ccc(NC(=O)Nc3cccc(C(F)(F)F)c3)c3ccccc23)n1 [Example 799, N-(4-((3-(4-(methylamino)-1,3,5-triazin-2-yl)-2-pyridinyl)oxy)-1-naphthalenyl)-N′-(3 - (trifluoromethyl)phenyl)urea] | > 5.00 | > 5.30 | > 5.00
22 | CNc1ncnc(-c2cccnc2Oc2ccc(NC(=O)Nc3cc(C(F)(F)F)ccc3CN3CC[C@@H](N(C)C)C3)c3ccccc23)n1 [Example 802, N-(2-(((3R)-3-(dimethylamino)-1-pyrrolidinyl)methyl)-5-(trifluoromethyl)phenyl)-N′-(4-((3-(4-(methylamino)-1,3,5-triazin-2-yl)-2-pyridinyl)oxy)-1-naphthalenyl)urea] | > 5.00 | > 5.30 | > 5.00
23 | CNc1nccc(-c2cccnc2Oc2ccc(NC(=O)Nc3cc(Cl)ccc3Cl)cc2C)n1 [Example 806, N-(2,5-dichlorophenyl)-N′-(3-methyl-4-((3-(2-(methylamino)-4-pyrimidinyl)-2-pyridinyl)oxy)phenyl)urea] | > 5.00 | > 5.30 | > 5.00
24 | CNc1nccc(-c2cccnc2Oc2ccc(NC(=O)Nc3cc(C(C)(C)C)ccc3OC)cc2C)n1 [Example 818, N-(5-(1,1-dimethylethyl)-2-(methyloxy)phenyl)-N′-(3-methyl-4-((3-(2-(methylamino)-4-pyrimidinyl)-2-pyridinyl)oxy)phenyl)urea] | > 5.00 | > 5.30 | > 5.00
25 | CNc1nccc(-c2cccnc2Oc2ccc(NC(=O)Nc3cccc(C(F)(F)F)c3)cc2Cl)n1 [Example 837, N-(3-chloro-4-((3-(2-(methylamino)-4-pyrimidinyl)-2-pyridinyl)oxy)phenyl)-N′-(3-(trifluoromethyl)phenyl)urea] | > 5.00 | > 5.30 | > 5.00
26 | CNc1nccc(-c2cccnc2Oc2ccc(NC(=O)Nc3cc(C(C)(C)C)on3)cc2C)n1 [Example 841, N-(5-(1,1-dimethylethyl)-3-isoxazolyl)-N′-(3-methyl-4-((3-(2-(methylamino)-4-pyrimidinyl)-2-pyridinyl)oxy)phenyl)urea] | > 5.00 | > 5.30 | > 5.00
27 | CNc1nccc(-c2cccnc2Oc2ccc(NC(=S)Nc3cccc(SC(F)(F)F)c3)cc2C)n1 [Example 888, N-(3-methyl-4-((3-(2 (methylamino)-4-pyrimidinyl)-2-pyridinyl)oxy)phenyl)-N′-(3-((trifluoromethyl)sulfanyl)phenyl)thiourea] | > 5.00 | > 5.30 | > 5.00
28 | CNc1nccc(-c2cccnc2Oc2ccc(NC(=O)Nc3cc(Cl)ccc3OC)c(C)c2C)n1 [Example 889, N-(5-chloro-2-(methyloxy)phenyl)-N′-(2,3-dimethyl-4-((3-(2-(methylamino)-4-pyrimidinyl)-2-pyridinyl)oxy)phenyl)urea] | > 5.00 | > 5.30 | > 5.00
